Our source for the binding values is publication PMC7498585.

Results are given in words; binding and its absence hold for the method and conditions named. In cells and extracts the contact can be indirect. Sequences can lack the tags named with a protein.

The assay concerns the target T1, DRAM1-FLAG (human) (UniProt Q8N682).
T1 sequence: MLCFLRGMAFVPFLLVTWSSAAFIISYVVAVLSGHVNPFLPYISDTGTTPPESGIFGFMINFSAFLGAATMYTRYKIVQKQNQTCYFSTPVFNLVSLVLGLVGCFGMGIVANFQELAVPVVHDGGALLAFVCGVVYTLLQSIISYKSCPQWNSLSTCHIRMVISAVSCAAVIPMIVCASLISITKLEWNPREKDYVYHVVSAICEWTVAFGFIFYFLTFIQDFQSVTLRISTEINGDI
The assay is described as follows: co-IP; RIPA lysates of DRAM1-overexpressing H1975 and A549 cells; anti-FLAG agarose beads, 4 °C overnight; Western blot for ATP6V1D and ATP6V0D. (Immunoblotting shows a protein as a band on a membrane.)

Take “V-ATP6V0D (human (endogenous in H1975 and A549))”: the binding entry is recorded as “no binding”.
